# Experimental data taken from PubChem BioAssay AID651640 (Broad Institute, 2012).
# “And” between values parts separate entries of the source, which are not always exact repeats. Equal entries are not always repeated. The whole screen tested about 350,000 compounds, of which about 6,000 (1.7%) were called active. The shares of active, inactive and inconclusive entries below differ from those in the screen. Cut-off read from the data, not from the text of the source: active = CPE inhibition above about 20% (passing the limit was not always enough); inconclusive = no clear call, values can overlap the other calls; tested in BHK-21 cells.
# Test: protection of cells from dengue 2 killing – plate reader, single concentration, primary screen (AID 651640);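 note: 0% = median of neutral control wells and 100% = median of positive control wells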
# Conditions: DENV2-infected cells, cytopathic effect rescue, at 9.99 µM, active compounds read high
row,SMILES,CPE inhibition
1,CC(C)NC(=O)Nc1ccc2c(c1)C(=O)N([C@H](C)CO)C[C@@H](C)[C@H](CN(C)C(=O)c1ccccc1)OCCCC[C@H](C)O2,inconclusive: 22.5%
2,COc1cccc(S(=O)(=O)Nc2ccc3c(c2)C(=O)N(C)[C@H]2CC[C@@H](CC(=O)O)O[C@H]2CO3)c1,inactive: 16.2%
3,Nc1cc(=O)[nH]c(SCC(=O)N2CCC(Cc3ccccc3)CC2)n1,inconclusive: 26.5%
4,COc1ccc(C)cc1NC(=O)C(c1ccccc1)N1CCN(CC(=O)N2CCOCC2)CC1 (stereo not given),active: 28%
6,C[C@H](CO)N1C[C@H](C)[C@H](CN(C)Cc2ccc3c(c2)OCO3)OCCCC[C@H](C)Oc2ccc(N(C)C)cc2C1=O,inactive: -9.49% and inactive: -4.19%
7,Nc1c(Br)cc(Br)c2c1C(=O)c1c(cccc1S(=O)(=O)O)C2=O,inactive: -3.49%
8,COc1ccccc1NC(=O)Nc1ccc2c(c1)C(=O)N(C)C[C@H](OC)[C@H](C)CN[C@@H](C)CO2,inactive: -9.73%
9,CO[C@H]1CC[C@@H]2CCOc3ccc(C#N)cc3C(=O)N(C)C[C@H](C)C(=O)N(C)C[C@H]1O2,inactive: -0.963%
10,O=C(/C=C/c1cn(CC(O)CN2CCCCC2)c2ccccc12)c1ccccc1 (stereo not given),active: 27.4%
11,COc1ccc(NC(=O)Nc2ccc3c(c2)C(=O)N([C@@H](C)CO)C[C@@H](C)[C@@H](CN(C)C)OCCCC[C@H](C)O3)cc1,inconclusive: 33.3%
12,C[C@H](CO)N1C[C@H](C)[C@@H](CN(C)C(=O)Nc2cc(F)ccc2F)Oc2cc(-c3cccc(C#N)c3)ccc2S1(=O)=O,inactive: 5.9%
13,Cn1c(=O)c2c(nc(Oc3cccc(O)c3)n2C)n(C)c1=O,inconclusive: 21.2%
14,COCC(=O)N(C)C[C@@H]1Oc2ncc(-c3ccccc3OC)cc2C(=O)N([C@@H](C)CO)C[C@@H]1C,inactive: 0.798%
15,CCCN(CCC)CCCNC(=O)CCNS(=O)(=O)c1ccc(Br)cc1,inconclusive: 56%
16,Cc1ccc(S(=O)(=O)Nc2ccc3c(c2)C(=O)N([C@@H](C)CO)C[C@@H](C)[C@@H](CN(C)C(=O)Nc2c(C)noc2C)OCCCC[C@@H](C)O3)cc1,inconclusive: 37.9%
17,Cc1ccccc1NS(=O)(=O)c1ccc(S(=O)(=O)N2CCCC2)cc1,active: 22.4%
18,CNC[C@@H]1Oc2c(NC(=O)c3ccncc3)cccc2C(=O)N([C@H](C)CO)C[C@H]1C,inactive: 0.986%
19,CCN1CCN(C(=O)c2cc3cc(Cl)ccc3[nH]2)CC1,inactive: -1.87%
20,CCc1c(C)c2cc(Cl)c(O)c(CN3CCCC3)c2oc1=O,inconclusive: 37.2%
21,Cc1nnc(SCC(=O)Nc2ccc(F)cc2F)n(N)c1=O,inactive: -7.96%
22,C[C@@H]1CN([C@H](C)CO)C(=O)c2cc(C#Cc3ccc(F)cc3)cnc2O[C@@H]1CN(C)C(=O)c1ccccc1F,active: 45%
23,Cc1noc(C)c1NC(=O)Nc1ccc2c(c1)C(=O)N([C@H](C)CO)C[C@H](C)[C@@H](CN(C)C(=O)Nc1ccc3c(c1)OCO3)OCCCC[C@H](C)O2,inactive: -5.53%
24,O=C(NC1CC1)C1CCN(C2CCN(C(=O)c3c(F)cccc3Cl)CC2)CC1,inactive: 4.63%

row,SMILES,CPE inhibition
1,CCCNC(=O)N(C)C[C@@H]1Oc2ncc(C#CCc3ccccc3)cc2C(=O)N([C@@H](C)CO)C[C@@H]1C,inconclusive: 40.8%
2,CCC(=O)N1CC2(C1)[C@H](c1ccccc1)[C@H](CO)N2C(=O)c1cccnc1,active: 23.9%
3,COc1ccc(-c2noc(CCCCC(=O)N3CCN(c4cc(C)ccc4C)CC3)n2)cc1,inactive: -5.73%
4,Cc1cc(Nc2ccc(O)cc2)n2c(nc3ccccc32)c1C#N,inconclusive: 21%
5,O=C(NC1CCCC1)N1CCCCN2[C@H](CO)[C@@H](c3ccc(-c4cncnc4)cc3)[C@@H]2C1,active: 33.9%
6,CCOC(=O)c1oc2ccccc2c1COC(=O)CNC(=O)c1cc(OC)c(OC)c(OC)c1,inconclusive: 24.7%
7,C=Cn1cc(CNC[C@H]2O[C@@H](n3cc(C)c(=O)[nH]c3=O)C[C@@H]2O)c(C)n1,inconclusive: 24.2%
8,C[C@@H]1CN([C@@H](C)CO)C(=O)c2cccc(NC(=O)c3cnccn3)c2O[C@@H]1CN(C)C,inconclusive: 33.5%
9,O=C(C[C@@H]1CC[C@@H](NC(=O)C2CCOCC2)[C@H](CO)O1)Nc1ccccc1,inconclusive: 29.1%
10,C[C@@H]1CN([C@@H](C)CO)C(=O)c2cc(NS(=O)(=O)c3cccs3)ccc2O[C@@H](C)CCCCO[C@@H]1CN(C)C(=O)CCC(F)(F)F,inactive: 9.88%
11,COC(=O)[C@H](Cc1ccccc1)N1CC(N2CCCC2)CS1(=O)=O (stereo not given in full),inconclusive: 57.6%
12,COc1ccc2c(c1OC)C(=O)OC2Nc1nc(-c2cc3cc([N+](=O)[O-])ccc3oc2=O)cs1 (stereo not given),inconclusive: 23.7%
13,C=CCOc1ccc(C[C@H](N)C(=O)NC[C@H]2O[C@@H](n3ccc(N)nc3=O)[C@H](O)[C@@H]2O)cc1,inconclusive: 49.2%
14,COc1ccc(-c2nnc3ccc(SCC(=O)N4CCCC4)nn23)cc1,inconclusive: 42.7%
15,CCCc1cc(NCCN(C)C)n2c(nc3ccccc32)c1C#N,inconclusive: 30.2%
16,O=C(Cc1ccccc1)NNC1CC(=O)N(c2ccc(Oc3ccccc3)cc2)C1=O (stereo not given),inconclusive: 26%
17,CCc1cccc(NC(=O)C2CCN(S(=O)(=O)c3ccc4[nH]c(=O)ccc4c3)CC2)c1,inconclusive: 28.8%
18,CCCNC(=O)[C@@H]1[C@@H](CO)[C@@H]2Cn3c(ccc(/C=C/c4ccccc4)c3=O)[C@H]1N2C(=O)C1CCC1,inconclusive: 22.3%
19,COc1ccccc1NC(=O)Cn1cnc2c(oc3ccccc32)c1=O,inconclusive: 40.8%
20,COc1ccc(C(=O)Nc2ccc(S(=O)(=O)N3CCCC3)cc2)cc1,inactive: 0.271%
21,COc1ccc([N+](=O)[O-])cc1NC(=O)C(C)OC(=O)CN1C(=O)C2CC=CCC2C1=O (stereo not given),inconclusive: 27%
22,C[C@H](CO)N1C[C@H](C)[C@H](CN(C)Cc2cccc3c2OCCCO3)OCc2cnnn2CCCC1=O,inconclusive: 34.8%
23,COc1cccc(C(O)c2nc(-c3cc(F)cc(F)c3)cs2)c1 (stereo not given),active: 29.6%
24,C/C=C/c1ccc([C@H]2[C@H](CO)N3C(=O)CN(C(=O)NC4CCCCC4)C[C@@H]23)cc1,inconclusive: 27.9%

row,SMILES,CPE inhibition
1,Brc1ccc(C2=Nc3cccc4cccc(c34)N2)o1,inconclusive: 47.9%
2,Cc1noc(C)c1S(=O)(=O)Nc1ccc2c(c1)CC(=O)N([C@@H](C)CO)C[C@@H](C)[C@@H](CN(C)Cc1ccc(Cl)c(Cl)c1)O2,inactive: 0.597%
3,O=C(c1ccco1)N1CCCC(c2nc3c(nnn3Cc3cccc(Cl)c3)c(=O)[nH]2)C1 (stereo not given),inconclusive: 25.2%
4,Cc1cc(Cl)c(OCCCNC2CCCC2)c(Br)c1,active: 27.2%
5,COCCN(C[C@H]1[C@H](c2ccccc2)[C@H](CO)N1C(C)=O)C(=O)c1ccncc1,active: 25.3%
6,C[C@H](NC(=O)C[C@H]1CC[C@@H]2[C@H](COC[C@H](O)CN2C(=O)Nc2cccc(F)c2)O1)c1ccccc1,inactive: -9.84%
7,Cc1ccc(C(C)C)c(OCC(=O)OCC(=O)c2c(N)n(C)c(=O)n(C)c2=O)c1,inconclusive: 23.9%
8,COc1ccc(S(=O)(=O)Nc2ccc3c(c2)C(=O)N([C@H](C)CO)C[C@@H](C)[C@@H](CN(C)S(=O)(=O)c2ccc(Cl)cc2)OCCCC[C@@H](C)O3)cc1,inactive: 8.99%
9,Cc1ccc2nc(CSc3nnc4ccccn34)cc(=O)n2c1,inactive: 5.52%
10,COCC(=O)Nc1ccc2c(c1)[C@H]1C[C@H](CC(=O)N(C)C)O[C@H](CO)[C@H]1O2,inconclusive: 30.7%
11,CC(=O)N1CC(=O)N2[C@@H](CO)[C@H](c3ccc(-c4ccc(C(=O)N(C)C)cc4)cc3)[C@@H]2C1,inactive: 4.76%
12,CSc1ccc(CN(C)C(=O)CNC(=O)c2ccc3c(c2)OCO3)cc1,inconclusive: 41.9%
13,COC/C=C/C1=CC2=CC(=O)C(C)(OC(=O)c3cnc4ccccc4n3)C(=O)C2=CN1C(CO)CO (stereo not given),active: 31%
14,O=C(Cn1cc2c(n1)CCCC2)N1CCc2ccccc21,inconclusive: 26.1%
15,C#Cc1ccc([C@@H]2C=C(C(=O)N3CCN(Cc4ccc5c(c4)OCO5)CC3)O[C@H](OCCCCO)C2)cc1,inconclusive: 57.2%
16,Cc1ccc([N+](=O)[O-])cc1S(=O)(=O)Nc1cccc(-c2ccc(N3CCOCC3)nn2)c1,inconclusive: 51.6%
17,O=C1CC(c2ccccc2)NC(=S)N1 (stereo not given),inconclusive: 44.2%
18,Cc1nc(-c2ccc(S(=O)(=O)N3CCOCC3)cc2)cs1,inconclusive: 22.3%
19,CN1C(=O)c2cc(NC(=O)c3ccc(Cl)cc3)ccc2OC[C@@H]2O[C@@H](CC(=O)NCc3cccc(F)c3)CC[C@@H]21,inactive: -10.4%
20,O=C1NC[C@H](Cc2ccccc2)N(C[C@@H]2CCCN2C[C@H](Cc2ccc(O)cc2)N2C[C@H](Cc3ccccc3)N(CC3CCCCCC3)C(=O)C2=O)C1=O,inconclusive: 61.4%
21,Cc1ccc2c(c1)N(CCC(=O)NCCCN1CCCC1)C(=O)C(C)O2 (stereo not given),inconclusive: 29.3%
22,O=C(Nc1cc(F)ccc1F)N[C@H]1CC[C@H](CCNC(=O)c2cnccn2)O[C@H]1CO,inactive: -7.98%

# 5 consecutive records out of the list so far, quoted:
row,SMILES,CPE inhibition
3,O=C(c1ccco1)N1CCCC(c2nc3c(nnn3Cc3cccc(Cl)c3)c(=O)[nH]2)C1 (stereo not given),inconclusive: 25.2%
4,Cc1cc(Cl)c(OCCCNC2CCCC2)c(Br)c1,active: 27.2%
5,COCCN(C[C@H]1[C@H](c2ccccc2)[C@H](CO)N1C(C)=O)C(=O)c1ccncc1,active: 25.3%
6,C[C@H](NC(=O)C[C@H]1CC[C@@H]2[C@H](COC[C@H](O)CN2C(=O)Nc2cccc(F)c2)O1)c1ccccc1,inactive: -9.84%
7,Cc1ccc(C(C)C)c(OCC(=O)OCC(=O)c2c(N)n(C)c(=O)n(C)c2=O)c1,inconclusive: 23.9%
